From PubChem BioAssay AID2685 (National Center for Advancing Translational Sciences (NCATS), 2010)
This is one part of the list. These are further read-outs of the screen, such as a control signal, another cell line or another target. No call is given for them. Compounds called inactive in the main read-out are mostly missing here. The note in brackets gives the kind of curve behind each potency; many fits are weak.

Experiment: qHTS Assay for Lipid Storage Modulators in Drosophila S3 Cells;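 as to cell number change: cells counted by Cell Tracker Red CMTPX staining in the red channel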
Conditions: BODIPY lipid droplet fluorescence, 18-24 h; for cell number change: measured here: cell count max response, cells fed with added oleic acid
Summary of the method: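 Drosophila S3 cells got compounds at several concentrations plus oleic acid (400 uM solution). Laser-scanning cytometry with 488 nm excitation read lipid droplets at 500-530 nm and cells at 575-640 nm. Percent activity was relative to 20 uM Triacsin C.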

[1] = measured here: cell number channel AC50, cells fed with added oleic acid
[2] = measured here: lipid fluorescence (Fed channel) AC50, cells fed with added oleic acid

SMILES	cell number change [%]	AC50 [1]	AC50 [2]
O=C(CN1C(=O)S/C(=C\c2cccc(Cl)c2)C1=O)NC1C=CS(=O)(=O)C1 (configuration not stated)	1.91	6.51 µM [falling, partial curve, poor fit]	4.11 µM [falling, full curve, poor fit]
O=[N+]([O-])c1cccc(C(O)C23CN4CN(CN(C4)C2)C3)c1 (configuration not stated)	3.23		0.0651 µM [rising, full curve, poor fit]
CCS(=O)(=O)c1ccc2c(c1)N(S(=O)(=O)c1ccc(C)cc1)CC(C(=O)O)O2 (configuration not stated)	-16.7		
COc1ccc(/C=C/c2ccc3cccc(O)c3n2)cc1Br	231		
Cc1cc(C)c2cc(CN(Cc3cccs3)Cc3nnnn3CC3CCCO3)c(=O)[nH]c2c1 (configuration not stated)	3.45		
CCOC(=O)c1cc(-c2ccc(N)cc2)sc1N	110	18.4 µM [rising, single point]	
Cc1nnc(SCc2cc(=O)[nH]c(N3CCN(Cc4ccccc4)CC3)n2)s1	-10.8		0.103 µM [falling, full curve, poor fit]
O=C(NC1=NCCS1)c1ccc(Cl)cc1	-4.97		3.66 µM [rising, partial curve]
Cn1c(=O)c2c(nc(N3CCCCC3)n2CC(O)COc2ccccc2)n(C)c1=O (configuration not stated)	14.5		29.1 µM [rising, single point]
CCOc1cc(N2CCOCC2)c(OCC)cc1NC(=O)COc1ncnc2ccc(Br)cc12		0.461 µM [rising, partial curve]	
O=C(CSc1ccc(-c2cccc([N+](=O)[O-])c2)nn1)NCc1ccccc1	-5.24		
Cc1ccc(S(=O)(=O)c2ccc(Oc3cccc(C)c3)cc2)cc1	9.37		0.291 µM [falling, full curve, poor fit]
CC1(C)C2CC=C(/C=N/n3cnnc3)C1C2 (configuration not stated)	81.9		
O=C(CSc1nnc(CNc2ccc(F)cc2)n1Cc1ccccc1)NCc1ccccc1	-30.2	18.4 µM [falling, single point]	25.9 µM [falling, partial curve]
Cn1cccc1Cc1nnc(SCC(=O)N2CCCCCC2)n1-c1ccc(F)cc1	-1.1		
CC(=O)N[C@@H](C)C(=O)N1CCC(n2nccc2NC(=O)CCCc2ccccc2)CC1	-39.3	32.6 µM [falling, single point]	
Cc1ccc(S(=O)(=O)NNC(=O)CCCCC(=O)NNS(=O)(=O)c2ccc(C)cc2)cc1	-49.2	29.1 µM [falling, single point]	
O=C(O)C1CC1(c1ccccc1)c1ccccc1 (configuration not stated)	41.2	29.1 µM [rising, single point]	29.1 µM [rising, single point]

Another view of some results above:

| SMILES | cell number change [%] | AC50 [1] | AC50 [2] |
| --- | --- | --- | --- |
| CCS(=O)(=O)c1ccc2c(c1)N(S(=O)(=O)c1ccc(C)cc1)CC(C(=O)O)O2 (configuration not stated) | -16.7 |  |  |
| COc1ccc(/C=C/c2ccc3cccc(O)c3n2)cc1Br | 231 |  |  |
